Experimental findings from article PMC10320016 are described below.

These are yes or no findings as the source states them, for the method shown. Binding seen in cells or lysates may run through a third protein. Some binding calls cover weakened binding; strength is not graded here.

The assay concerns the target CRAF fused at its N-terminus to the EGFP (UniProt P04049). Nature of the assay: co-IP.

For “epidermal growth factor receptor (from UniProt P00533 25-1210)”, the binding result is listed as “binds”.
